Test results as given in PMC8648123, “An atypical EhGEF regulates phagocytosis in Entamoeba histolytica through EhRho1” (PLoS Pathogens, 2021).
No constants are given. Whether binding was seen depends on the method and setting. Binding seen in cells or lysates may run through a third protein. For part of these data: A result given as binding can be weak or reduced; the word gives no strength. Tags and fused reporters may be left off the sequences shown.

Tests used:
Assay in all cases: pull-down; GST-tagged EhRho1 forms incubated with total lysate of trophozoites expressing HA-tag EhGEF; Glutathione-Sepharose; EhGEF detected with HA tag-specific antibody in western blot; only the target purified
[1] = target: GST-EhRho1-Q63L (constitutively active form of EhRho1) (Entamoeba histolytica)
[2] = target: GST-tagged EhRho1 (wild type) (Entamoeba histolytica)
[3] = target: GST-EhRho1-T34N (dominant negative form of EhRho1) (Entamoeba histolytica)

B1: HA-tagged EhGEF (full length wild type) (protein, UniProt C4LYE4 1-482)
chain: MSEELKISVESLRPALFEGWGKKQGGSVKTWKKRWFVLKDNRLWYFASKTAEEAKGFIELPPGTETKDVSQNKKFMFSINSRNTKGSRVFYIVTENSVDHATFFDAVRKVLNKSSPSSVPAAQSTTPVNVPKAENQFTLQGNNSSTGLSTSTQPVTSTIPPMADAVNIPNSLQPKCDGRKNINKIKAKISWLQVEGENVVEFWKYWMDSTPQSDALEVGQSIQFMLVVSGNTEKLSWRVFGPQGALIQNMVDFFWNVGAPDEEIDHLNNLGCQINPSEIGSWIDMSVMNGMDGGWFFKGDLVCDVIRDTADKCEYAERLITWAKEHGLNYLCQMGRDMGATPPRQSEFRFKLDGVISSRMEKVHSAFTTFGFPPIPVNIVEILTNLPPVYTYFYLCVIVSSEGFVKISILVPAPKQDVVDAFLFAMSDVKDTHIALHKDITNTLGNTPLFVEYCYLNPGYGYEVYKEGADVLVHYNLGSESR
binding [1]: no binding
binding [2]: binds
binding [3]: no binding
